Consider 1 molecule from patent publication US20250145710A1.

The chains behind the UniProt entries cited, without tags or fusion partners.
UniProt P56747: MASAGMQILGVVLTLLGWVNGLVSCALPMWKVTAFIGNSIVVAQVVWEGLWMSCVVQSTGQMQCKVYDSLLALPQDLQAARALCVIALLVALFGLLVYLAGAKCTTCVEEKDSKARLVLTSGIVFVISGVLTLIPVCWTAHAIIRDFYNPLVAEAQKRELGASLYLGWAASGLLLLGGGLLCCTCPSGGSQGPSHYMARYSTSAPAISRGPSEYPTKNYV

These are yes or no findings as the source states them, for the method shown. Some results given as binding are weak or reduced against the parent protein; the word gives no strength.

This assay concerns the target human CLDN6 (human) (UniProt P56747). Kind of assay: flow cytometry on a CLDN negative parental cell line transfected with CLDN6, CLDN4, CLDN3 or CLDN9 (FIG. 11A).

B1: IM271-1HEP antibody (antibody, V domains shown)
VH: EVQLLESGGGLVQPGGSLRLSCAASGFTFSSYAMNWVRQAPGKGLEWVAGISSSGRYTGYADSVKGRFTISRDNSKNTLYLQMNSLRAEDTAVYYCAKSVGSGVSWSGYVATSLDAWGQGTLVTVSS
VL: SYELTQPPSVSVSPGQTARITCSAGSGLYGWYQQKPGQAPVLVIYGTNKRPSGIPERFSGSSSGTTVTLTISGVQAEDEADYYCGSADSSTNAGIFGGGTKLTVL
As to B1, the binding entry is “binds”.
